# No constants are given. Whether binding was seen depends on the method and setting. Binding seen in cells or lysates may run through a third protein. Here binding means that the protein was enriched with, or labelled near, the bait; the list need not be complete.
# By UniProt entry, the sequences of proteins in these tests, tags left out.
# UniProt Q12840: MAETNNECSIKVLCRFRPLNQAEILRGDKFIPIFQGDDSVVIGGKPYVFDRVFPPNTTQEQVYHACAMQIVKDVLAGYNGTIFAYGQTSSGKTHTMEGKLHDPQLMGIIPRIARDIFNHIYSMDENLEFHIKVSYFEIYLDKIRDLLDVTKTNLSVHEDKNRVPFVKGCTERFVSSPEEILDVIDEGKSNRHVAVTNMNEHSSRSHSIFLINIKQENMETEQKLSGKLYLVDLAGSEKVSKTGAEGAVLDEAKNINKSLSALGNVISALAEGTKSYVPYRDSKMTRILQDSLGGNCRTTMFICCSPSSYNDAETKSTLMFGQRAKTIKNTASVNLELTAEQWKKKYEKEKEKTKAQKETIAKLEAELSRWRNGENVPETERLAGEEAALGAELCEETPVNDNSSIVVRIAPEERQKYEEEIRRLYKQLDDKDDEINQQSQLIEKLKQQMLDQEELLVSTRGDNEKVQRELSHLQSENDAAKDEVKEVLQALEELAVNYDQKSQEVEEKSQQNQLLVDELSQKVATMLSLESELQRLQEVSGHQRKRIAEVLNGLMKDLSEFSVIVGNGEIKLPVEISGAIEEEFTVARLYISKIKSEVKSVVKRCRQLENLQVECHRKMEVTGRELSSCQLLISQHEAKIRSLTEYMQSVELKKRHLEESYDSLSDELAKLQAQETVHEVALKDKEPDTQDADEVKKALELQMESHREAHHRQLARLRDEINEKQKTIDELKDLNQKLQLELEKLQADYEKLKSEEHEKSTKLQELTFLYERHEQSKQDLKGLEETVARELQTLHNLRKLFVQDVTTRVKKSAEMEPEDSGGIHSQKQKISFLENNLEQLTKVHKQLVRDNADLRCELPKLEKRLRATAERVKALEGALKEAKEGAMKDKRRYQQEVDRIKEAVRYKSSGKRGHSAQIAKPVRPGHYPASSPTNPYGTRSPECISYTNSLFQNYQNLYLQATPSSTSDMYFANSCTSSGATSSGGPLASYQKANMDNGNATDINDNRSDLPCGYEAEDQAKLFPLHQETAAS
# UniProt O15523: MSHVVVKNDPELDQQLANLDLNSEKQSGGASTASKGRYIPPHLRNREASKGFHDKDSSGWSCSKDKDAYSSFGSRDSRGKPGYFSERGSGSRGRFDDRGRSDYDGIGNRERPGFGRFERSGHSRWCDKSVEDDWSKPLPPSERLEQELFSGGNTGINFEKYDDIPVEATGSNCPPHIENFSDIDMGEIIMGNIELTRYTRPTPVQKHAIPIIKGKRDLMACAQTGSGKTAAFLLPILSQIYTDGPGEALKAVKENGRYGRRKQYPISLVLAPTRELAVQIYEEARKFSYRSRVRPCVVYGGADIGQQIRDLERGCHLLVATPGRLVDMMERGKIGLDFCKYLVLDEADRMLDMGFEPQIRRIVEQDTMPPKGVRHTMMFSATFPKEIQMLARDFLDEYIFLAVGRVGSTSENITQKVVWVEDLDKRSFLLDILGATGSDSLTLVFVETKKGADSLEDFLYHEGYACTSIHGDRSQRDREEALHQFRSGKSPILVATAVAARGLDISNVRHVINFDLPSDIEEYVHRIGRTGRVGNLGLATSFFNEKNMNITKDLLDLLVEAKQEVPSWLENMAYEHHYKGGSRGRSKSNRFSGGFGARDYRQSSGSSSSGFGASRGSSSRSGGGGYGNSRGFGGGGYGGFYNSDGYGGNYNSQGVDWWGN
# UniProt O15372: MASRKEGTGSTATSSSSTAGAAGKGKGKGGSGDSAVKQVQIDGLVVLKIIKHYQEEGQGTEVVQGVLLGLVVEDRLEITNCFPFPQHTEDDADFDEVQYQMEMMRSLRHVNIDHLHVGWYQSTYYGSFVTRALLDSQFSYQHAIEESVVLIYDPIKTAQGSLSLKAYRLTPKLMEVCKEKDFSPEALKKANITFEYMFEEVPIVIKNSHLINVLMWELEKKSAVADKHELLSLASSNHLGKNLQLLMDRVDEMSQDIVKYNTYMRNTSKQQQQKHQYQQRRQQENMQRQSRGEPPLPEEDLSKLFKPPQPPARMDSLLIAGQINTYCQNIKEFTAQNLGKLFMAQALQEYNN
# UniProt O75420: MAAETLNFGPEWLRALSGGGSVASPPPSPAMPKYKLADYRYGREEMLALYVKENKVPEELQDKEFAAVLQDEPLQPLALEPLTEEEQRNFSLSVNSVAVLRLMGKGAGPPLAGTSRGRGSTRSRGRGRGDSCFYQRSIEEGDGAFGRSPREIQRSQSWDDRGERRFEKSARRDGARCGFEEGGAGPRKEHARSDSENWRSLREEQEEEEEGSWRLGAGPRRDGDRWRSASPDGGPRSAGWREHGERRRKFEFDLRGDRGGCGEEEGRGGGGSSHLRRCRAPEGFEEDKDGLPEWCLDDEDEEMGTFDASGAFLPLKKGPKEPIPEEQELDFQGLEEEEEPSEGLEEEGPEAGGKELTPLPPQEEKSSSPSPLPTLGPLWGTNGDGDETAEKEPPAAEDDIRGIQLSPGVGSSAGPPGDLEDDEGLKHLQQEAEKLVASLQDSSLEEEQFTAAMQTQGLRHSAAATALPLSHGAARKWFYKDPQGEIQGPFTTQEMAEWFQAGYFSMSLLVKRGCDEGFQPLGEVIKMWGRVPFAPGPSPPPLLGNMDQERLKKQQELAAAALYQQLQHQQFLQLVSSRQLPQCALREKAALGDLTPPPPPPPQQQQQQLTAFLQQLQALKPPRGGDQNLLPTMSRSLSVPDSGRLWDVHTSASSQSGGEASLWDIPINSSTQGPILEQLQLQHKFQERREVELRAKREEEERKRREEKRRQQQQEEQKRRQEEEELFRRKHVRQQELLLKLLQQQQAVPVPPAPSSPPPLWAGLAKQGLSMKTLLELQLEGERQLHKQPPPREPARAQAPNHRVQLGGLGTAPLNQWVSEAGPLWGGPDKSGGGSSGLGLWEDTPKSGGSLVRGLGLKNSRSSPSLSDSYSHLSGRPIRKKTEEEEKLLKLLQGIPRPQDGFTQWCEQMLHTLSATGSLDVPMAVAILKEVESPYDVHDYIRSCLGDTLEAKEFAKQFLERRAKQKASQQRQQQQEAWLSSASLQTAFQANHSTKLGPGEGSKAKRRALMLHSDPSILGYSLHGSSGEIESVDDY
# UniProt Q9NSK0: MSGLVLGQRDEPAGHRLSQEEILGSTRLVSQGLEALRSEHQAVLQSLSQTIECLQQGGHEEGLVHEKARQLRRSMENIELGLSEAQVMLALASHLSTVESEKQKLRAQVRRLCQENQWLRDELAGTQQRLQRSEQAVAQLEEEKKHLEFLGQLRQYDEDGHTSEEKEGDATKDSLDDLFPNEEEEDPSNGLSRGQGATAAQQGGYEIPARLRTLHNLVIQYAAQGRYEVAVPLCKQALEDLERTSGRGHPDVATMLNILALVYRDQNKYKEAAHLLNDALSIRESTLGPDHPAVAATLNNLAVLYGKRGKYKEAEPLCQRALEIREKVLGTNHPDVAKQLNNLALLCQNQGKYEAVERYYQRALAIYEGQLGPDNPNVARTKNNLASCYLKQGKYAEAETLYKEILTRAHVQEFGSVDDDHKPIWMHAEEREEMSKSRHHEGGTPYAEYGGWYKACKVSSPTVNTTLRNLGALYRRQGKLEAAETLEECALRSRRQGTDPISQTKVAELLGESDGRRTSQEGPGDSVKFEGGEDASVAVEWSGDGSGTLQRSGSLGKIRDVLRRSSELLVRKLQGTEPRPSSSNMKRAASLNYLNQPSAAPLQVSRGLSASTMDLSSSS
# UniProt Q9H0B6: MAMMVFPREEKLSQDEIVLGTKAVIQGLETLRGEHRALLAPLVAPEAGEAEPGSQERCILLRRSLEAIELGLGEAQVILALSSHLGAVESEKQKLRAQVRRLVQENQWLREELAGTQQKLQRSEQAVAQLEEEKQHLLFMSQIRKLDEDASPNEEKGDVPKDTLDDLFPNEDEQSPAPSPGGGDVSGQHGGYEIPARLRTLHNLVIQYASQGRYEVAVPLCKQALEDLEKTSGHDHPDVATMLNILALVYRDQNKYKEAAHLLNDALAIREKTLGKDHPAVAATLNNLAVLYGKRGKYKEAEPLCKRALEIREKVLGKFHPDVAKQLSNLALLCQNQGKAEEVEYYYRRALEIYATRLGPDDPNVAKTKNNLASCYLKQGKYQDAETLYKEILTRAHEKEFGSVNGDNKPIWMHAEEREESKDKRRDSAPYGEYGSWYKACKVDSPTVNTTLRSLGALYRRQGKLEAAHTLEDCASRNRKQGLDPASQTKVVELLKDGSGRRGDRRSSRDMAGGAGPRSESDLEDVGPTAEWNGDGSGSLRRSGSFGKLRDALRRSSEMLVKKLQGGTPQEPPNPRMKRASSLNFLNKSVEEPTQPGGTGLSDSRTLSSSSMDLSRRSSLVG
# UniProt O75822: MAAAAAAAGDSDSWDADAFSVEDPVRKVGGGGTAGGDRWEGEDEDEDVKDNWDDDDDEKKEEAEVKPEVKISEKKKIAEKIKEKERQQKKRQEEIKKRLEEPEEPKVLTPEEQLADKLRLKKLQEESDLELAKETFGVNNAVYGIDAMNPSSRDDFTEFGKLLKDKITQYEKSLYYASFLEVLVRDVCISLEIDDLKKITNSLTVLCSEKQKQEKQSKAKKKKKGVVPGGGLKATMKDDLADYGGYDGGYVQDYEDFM
# UniProt O75821: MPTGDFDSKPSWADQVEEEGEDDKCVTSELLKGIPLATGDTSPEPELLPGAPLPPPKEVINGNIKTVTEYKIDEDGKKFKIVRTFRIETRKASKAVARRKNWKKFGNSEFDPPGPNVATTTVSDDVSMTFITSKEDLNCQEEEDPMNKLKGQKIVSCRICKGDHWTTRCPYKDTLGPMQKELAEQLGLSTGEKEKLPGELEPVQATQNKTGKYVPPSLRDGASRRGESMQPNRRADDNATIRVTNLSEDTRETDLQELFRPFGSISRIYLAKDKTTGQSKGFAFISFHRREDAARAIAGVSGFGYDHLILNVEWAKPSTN
# UniProt Q13283: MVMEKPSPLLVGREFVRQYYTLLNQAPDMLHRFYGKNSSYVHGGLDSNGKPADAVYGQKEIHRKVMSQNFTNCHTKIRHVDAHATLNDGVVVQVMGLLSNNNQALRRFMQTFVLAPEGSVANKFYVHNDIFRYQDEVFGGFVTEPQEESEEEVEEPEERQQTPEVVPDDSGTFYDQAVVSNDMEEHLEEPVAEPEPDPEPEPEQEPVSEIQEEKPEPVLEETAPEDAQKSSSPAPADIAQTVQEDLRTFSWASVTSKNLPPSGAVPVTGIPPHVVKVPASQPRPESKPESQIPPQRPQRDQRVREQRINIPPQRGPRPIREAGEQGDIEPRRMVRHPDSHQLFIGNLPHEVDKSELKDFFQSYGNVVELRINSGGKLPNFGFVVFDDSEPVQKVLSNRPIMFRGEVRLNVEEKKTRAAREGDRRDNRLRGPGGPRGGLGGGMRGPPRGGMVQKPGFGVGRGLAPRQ
# UniProt Q13242: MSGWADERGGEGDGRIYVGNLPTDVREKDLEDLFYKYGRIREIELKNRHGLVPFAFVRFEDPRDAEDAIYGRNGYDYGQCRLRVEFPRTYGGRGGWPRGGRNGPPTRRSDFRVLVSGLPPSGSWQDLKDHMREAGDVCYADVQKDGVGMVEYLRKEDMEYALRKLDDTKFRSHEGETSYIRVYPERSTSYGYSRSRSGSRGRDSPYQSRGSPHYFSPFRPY
# UniProt Q92615: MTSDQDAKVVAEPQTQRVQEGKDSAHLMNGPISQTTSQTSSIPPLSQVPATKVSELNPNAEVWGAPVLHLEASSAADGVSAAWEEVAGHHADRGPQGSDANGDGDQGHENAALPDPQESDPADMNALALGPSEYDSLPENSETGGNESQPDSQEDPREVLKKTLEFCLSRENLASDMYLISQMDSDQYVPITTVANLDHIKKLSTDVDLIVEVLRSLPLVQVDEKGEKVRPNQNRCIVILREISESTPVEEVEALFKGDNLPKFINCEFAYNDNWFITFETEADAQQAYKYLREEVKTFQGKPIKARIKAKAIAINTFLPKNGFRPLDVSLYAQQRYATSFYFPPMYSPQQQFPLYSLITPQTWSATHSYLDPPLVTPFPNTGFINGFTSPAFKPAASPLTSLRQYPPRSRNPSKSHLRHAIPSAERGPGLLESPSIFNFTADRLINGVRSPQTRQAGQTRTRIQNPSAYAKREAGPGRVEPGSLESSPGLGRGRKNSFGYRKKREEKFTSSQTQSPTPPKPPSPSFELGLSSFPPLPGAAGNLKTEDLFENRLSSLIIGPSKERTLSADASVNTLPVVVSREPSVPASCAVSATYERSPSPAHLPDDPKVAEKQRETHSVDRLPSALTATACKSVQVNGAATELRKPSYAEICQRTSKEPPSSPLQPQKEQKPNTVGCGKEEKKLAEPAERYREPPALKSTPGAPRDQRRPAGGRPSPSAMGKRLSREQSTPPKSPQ
# Molecular target: KIF5A-TurboID (human) (UniProt Q12840)
# Assay: proximity labelling
row,binding,Molecule
1,binds,EIF4H (from UniProt Q15056 1-248)
2,binds,DDX3Y (from UniProt O15523 1-660)
3,binds,EIF3H (from UniProt O15372 1-352)
4,binds,GIGYF1 (from UniProt O75420 1-1035)
5,binds,KLC4 (from UniProt Q9NSK0 1-619)
6,binds,KLC2 (from UniProt Q9H0B6 1-622)
7,binds,"PDAP1 (protein, UniProt Q13442 1-181) MPKGGRKGGHKGRARQYTSPEEIDAQLQAEKQKAREEEEQKEGGDGAAGDPKKEKKSLDSDESEDEEDDYQQKRKGVEGLIDIENPNRVAQTTKKVTQLDLDGPKELSRREREEIEKQKAKERYMKMHLAGKTEQAKADLARLAIIRKQREEAARKKEEERKAKDDATLSGKRMQSLSLNK"
8,binds,"GIGYF2 (protein, UniProt Q6Y7W6 1-1299) MAAETQTLNFGPEWLRALSSGGSITSPPLSPALPKYKLADYRYGREEMLALFLKDNKIPSDLLDKEFLPILQEEPLPPLALVPFTEEEQRNFSMSVNSAAVLRLTGRGGGGTVVGAPRGRSSSRGRGRGRGECGFYQRSFDEVEGVFGRGGGREMHRSQSWEERGDRRFEKPGRKDVGRPNFEEGGPTSVGRKHEFIRSESENWRIFREEQNGEDEDGGWRLAGSRRDGERWRPHSPDGPRSAGWREHMERRRRFEFDFRDRDDERGYRRVRSGSGSIDDDRDSLPEWCLEDAEEEMGTFDSSGAFLSLKKVQKEPIPEEQEMDFRPVDEGEECSDSEGSHNEEAKEPDKTNKKEGEKTDRVGVEASEETPQTSSSSARPGTPSDHQSQEASQFERKDEPKTEQTEKAEEETRMENSLPAKVPSRGDEMVADVQQPLSQIPSDTASPLLILPPPVPNPSPTLRPVETPVVGAPGMGSVSTEPDDEEGLKHLEQQAEKMVAYLQDSALDDERLASKLQEHRAKGVSIPLMHEAMQKWYYKDPQGEIQGPFNNQEMAEWFQAGYFTMSLLVKRACDESFQPLGDIMKMWGRVPFSPGPAPPPHMGELDQERLTRQQELTALYQMQHLQYQQFLIQQQYAQVLAQQQKAALSSQQQQQLALLLQQFQTLKMRISDQNIIPSVTRSVSVPDTGSIWELQPTASQPTVWEGGSVWDLPLDTTTPGPALEQLQQLEKAKAAKLEQERREAEMRAKREEEERKRQEELRRQQEEILRRQQEEERKRREEEELARRKQEEALRRQREQEIALRRQREEEERQQQEEALRRLEERRREEEERRKQEELLRKQEEEAAKWAREEEEAQRRLEENRLRMEEEAARLRHEEEERKRKELEVQRQKELMRQRQQQQEALRRLQQQQQQQQLAQMKLPSSSTWGQQSNTTACQSQATLSLAEIQKLEEERERQLREEQRRQQRELMKALQQQQQQQQQKLSGWGNVSKPSGTTKSLLEIQQEEARQMQKQQQQQQQHQQPNRARNNTHSNLHTSIGNSVWGSINTGPPNQWASDLVSSIWSNADTKNSNMGFWDDAVKEVGPRNSTNKNKNNASLSKSVGVSNRQNKKVEEEEKLLKLFQGVNKAQDGFTQWCEQMLHALNTANNLDVPTFVSFLKEVESPYEVHDYIRAYLGDTSEAKEFAKQFLERRAKQKANQQRQQQQLPQQQQQQPPQQPPQQPQQQDSVWGMNHSTLHSVFQTNQSNNQQSNFEAVQSGKKKKKQKMVRADPSLLGFSVNASSERLNMGEIETLDDY"
9,binds,"PATL1 (protein, UniProt Q86TB9 1-770) MFRYESLEDCPLDEDEDAFQGLGEEDEEIDQFNDDTFGSGAVDDDWQEAHERLAELEEKLPVAVNEQTGNGERDEMDLLGDHEENLAERLSKMVIENELEDPAIMRAVQTRPVLQPQPGSLNSSIWDGSEVLRRIRGPLLAQEMPTVSVLEYALPQRPPQGPEDDRDLSERALPRRSTSPIIGSPPVRAVPIGTPPKQMAVPSFTQQILCPKPVHVRPPMPPRYPAPYGERMSPNQLCSVPNSSLLGHPFPPSVPPVLSPLQRAQLLGGAQLQPGRMSPSQFARVPGFVGSPLAAMNPKLLQGRVGQMLPPAPGFRAFFSAPPSATPPPQQHPPGPGPHLQNLRSQAPMFRPDTTHLHPQHRRLLHQRQQQNRSQHRNLNGAGDRGSHRSSHQDHLRKDPYANLMLQREKDWVSKIQMMQLQSTDPYLDDFYYQNYFEKLEKLSAAEEIQGDGPKKERTKLITPQVAKLEHAYKPVQFEGSLGKLTVSSVNNPRKMIDAVVTSRSEDDETKEKQVRDKRRKTLVIIEKTYSLLLDVEDYERRYLLSLEEERPALMDDRKHKICSMYDNLRGKLPGQERPSDDHFVQIMCIRKGKRMVARILPFLSTEQAADILMTTARNLPFLIKKDAQDEVLPCLLSPFSLLLYHLPSVSITSLLRQLMNLPQSAATPALSNPHLTAVLQNKFGLSLLLILLSRGEDLQSSDPATESTQNNQWTEVMFMATRELLRIPQAALAKPISIPTNLVSLFSRYVDRQKLNLLETKLQLVQGIR"
10,binds,"DCP1B (protein, UniProt Q8IZD4 1-617) MAAVAAGGLVGKGRDISLAALQRHDPYINRIVDVASQVALYTFGHRANEWEKTDVEGTLFVYTRSASPKHGFTIMNRLSMENRTEPITKDLDFQLQDPFLLYRNARLSIYGIWFYDKEECQRIAELMKNLTQYEQLKAHQGTGAGISPVILNSGEGKEVDILRMLIKAKDEYTKCKTCSEPKKITSSSAIYDNPNLIKPIPVKPSENQQQRIPQPNQTLDPEPQHLSLTALFGKQDKATCQETVEPPQTLHQQQQQQQQQQEKLPIRQGVVRSLSYEEPRRHSPPIEKQLCPAIQKLMVRSADLHPLSELPENRPCENGSTHSAGEFFTGPVQPGSPHNIGTSRGVQNASRTQNLFEKLQSTPGAANKCDPSTPAPASSAALNRSRAPTSVTPVAPGKGLAQPPQAYFNGSLPPQTVGHQAHGREQSTLPRQTLPISGSQTGSSGVISPQELLKKLQIVQQEQQLHASNRPALAAKFPVLAQSSGTGKPLESWINKTPNTEQQTPLFQVISPQRIPATAAPSLLMSPMVFAQPTSVPPKERESGLLPVGGQEPPAAATSLLLPIQSPEPSVITSSPLTKLQLQEALLYLIQNDDNFLNIIYEAYLFSMTQAAMKKTM"

# Second part, the molecule before the results:
row,Molecule,binding
1,EIF3J (from UniProt O75822 1-258),binds
2,EIF3G (from UniProt O75821 1-320),binds
3,G3BP1 (from UniProt Q13283 1-466),binds
4,KLC1 (from UniProt Q07866 1-573),binds
5,SRSF9 (from UniProt Q13242 1-221),binds
6,LARP4B (from UniProt Q92615 1-738),binds
7,TNRC6A (from UniProt Q8NDV7 1-1962),binds
8,TNRC6C (from UniProt Q9HCJ0 1-1936),binds
9,TNRC6B (from UniProt Q9UPQ9 1-1833),binds
10,"TIA1 (protein, UniProt P31483 1-386) MEDEMPKTLYVGNLSRDVTEALILQLFSQIGPCKNCKMIMDTAGNDPYCFVEFHEHRHAAAALAAMNGRKIMGKEVKVNWATTPSSQKKDTSSSTVVSTQRSQDHFHVFVGDLSPEITTEDIKAAFAPFGRISDARVVKDMATGKSKGYGFVSFFNKWDAENAIQQMGGQWLGGRQIRTNWATRKPPAPKSTYESNTKQLSYDEVVNQSSPSNCTVYCGGVTSGLTEQLMRQTFSPFGQIMEIRVFPDKGYSFVRFNSHESAAHAIVSVNGTTIEGHVVKCYWGKETLDMINPVQQQNQIGYPQPYGQWGQWYGNAQQIGQYMPNGWQVPAYGMYGQAWNQQGFNQTQSSAPWMGPNYGVQPPQGQNGSMLPNQPSGYRVAGYETQ",binds

# — doi:10.1101/2025.10.31.685813
